The source of these data is US7361664B2, “Vitamin D receptor antagonists and related compositions and methods of use” (The United States of America as represented by the …, priority 2001, dated 2008).

A short description of the data set: Serum 25-OH-D3 and calcitriol levels on vitamin D diets. The data set is classed as in vivo, athymic mice.

For the substance vitamin D, the “serum 25-OH-D3” value reads like this: (diet with 4 mg/kg vitamin D) “approx. 34 pg/ml”; (diet with 40 mg/kg vitamin D) “approx. 73 pg/ml”; (normal diet with 6.6 mg/kg vitamin D) “approx. 18 pg/ml”. Further, the serum calcitriol entry reads like this: (diet with 4 mg/kg vitamin D) “approx. 370 pg/ml”; (diet with 40 mg/kg vitamin D) “approx. 70 pg/ml”.
